Assay: NO and NO2 levels in SNOAC aerosols and reaction vessel headspace
Assay type: physicochemical
Details: 100 mM SNOAC nebulized 0.2 mL/min, 4 L/min

CC(=O)N[C@@H](CSN=O)C(=O)O [SNOAC, S-nitroso-N-acetylcysteine]
Nitric oxide (NO) (carrier gas 100% oxygen): 5.2 ± 0.9 ppm
Nitric oxide (NO) (carrier gas air): 5.6 ± 1.2 ppm
Nitric oxide (NO) (carrier gas nitrogen): 5.5 ppm

Reference: patent US20240382443A1, “GENERATION OF S-NITROSOACETYLCYSTEINE” (The UAB Research Foundation, priority 2023, published 2024)
